Measured values: patent US12378320B2, “Methods for treating pancreatitis” (Cold Spring Harbor Laboratory, priority 2018, dated 2025)

Test system: CA19-9 modified proteins
Assay: CA19-9 IP/MS (iTRAQ) of organoid conditioned media after Dox treatment
Set-up: species or system mouse
Conditions: for 17 0H 5B1 (CA19-9 IP/MS relative abundance) / 17 0H NS19 (CA19-9 IP/MS relative abundance) / 17 8H 5B1 (CA19-9 IP/MS relative abundance) / 17 8H NS19 (CA19-9 IP/MS relative abundance): A217 organoid conditioned media; for 17 0H NS19 (CA19-9 IP/MS relative abundance) / 17 8H NS19 (CA19-9 IP/MS relative abundance) / 20 0H NS19 (CA19-9 IP/MS relative abundance) / 20 8H NS19 (CA19-9 IP/MS relative abundance): NS19-9; for 17 0H NS19 (CA19-9 IP/MS relative abundance): every printed value in this column is 1; for 20 0H 5B1 (CA19-9 IP/MS relative abundance) / 20 0H NS19 (CA19-9 IP/MS relative abundance) / 20 8H 5B1 (CA19-9 IP/MS relative abundance) / 20 8H NS19 (CA19-9 IP/MS relative abundance): A220 organoid conditioned media

Molecule | 17 0H 5B1 (CA19-9 IP/MS relative abundance) | 17 0H NS19 (CA19-9 IP/MS relative abundance) | 17 8H 5B1 (CA19-9 IP/MS relative abundance) | 17 8H NS19 (CA19-9 IP/MS relative abundance) | 20 0H 5B1 (CA19-9 IP/MS relative abundance) | 20 0H NS19 (CA19-9 IP/MS relative abundance) | 20 8H 5B1 (CA19-9 IP/MS relative abundance) | 20 8H NS19 (CA19-9 IP/MS relative abundance)
P97310 (protein, UniProt P97310 1-904, looked up, full-length) MAESSESLSASSPARQRRRISDPLTSSPGRSSRRADALTSSPGRDLPPFEDESEGLLGTEGPMEEEEDGEELIGDGMERDYRPIPELDVYEAEGLALDDEDVEELTASQREAAERTMRQRDREAGRGLGRMRRGLLYDSSEEDEERPARKRRHVERATEDGEEDEEMIESIENLEDLKGHSVREWVSMAGPRLEIHHRFKNFLRTHVDSHGHNVFKERISDMCKENRESLVVNYEDLAAREHVLAYFLPEAPAELLQIFDEAALEVVLAMYPKYDRITNHIHVRISHLPLVEELRSLRQLHLNQLIRTSGVVTSCTGVLPQLSMVKYNCSKCNFVLGPFCQSQNQEVKPGSCPECQSAGPFEINMEETIYQNYQRIRIQESPGKVAAGRLPRSKDAILLADLVDSCKPGDEIELTGIYHNNYDGSLNTANGFPVFATIILANHVAKKDNKVAVGELTDEDVKMITGLSKDQQIGEKIFASIAPSIYGHEDIKRGLALALFGGEPKNPGGKHKVRGDINVLLCGDPGTAKSQFLKYIEKVSSRAIFTTGQGASAVGLTAYVQRHPVSREWTLEAGALVLADRGVCLIDEFDKMNDQDRTSIHEAMEQQSISISKAGIVTSLQARCTVIAAANPIGGRYDPSLTFSENVDLTEPIISRFDVLCVVRDTVDPVQDEMLARFVVGSHVRHHPSNKKDEGLTNGGTLEPAMPNTYGVEPLPQEVLKKYIIYAKERVRPKLNQMDQDKVARMYSDLRKESMATGSIPITVRHIESMIRMAEAHARMHLRDYVMEDDVNMAIRVMMESFIDTQKFSVMRSMRKTFARYLSFRRDNNDLLLFILKQLVAEQVTYQRNRFGAQQDTIEIPEKDLMDKARQINIHNLSAFYDSDLFKFNKFSRDLKRKLILQQF | 1.542 | 1 | 1.411 | 0.409 | 1.777 | 0.512 | 2.25 | 0.44
Q64674 (protein, UniProt Q64674 1-302, looked up, full-length) MEPGPDGPAAPGPAAIREGWFRETCSLWPGQALSLQVEQLLHHRRSRYQDILVFRSKTYGNVLVLDGVIQCTERDEFSYQEMIANLPLCSHPNPRKVLIIGGGDGGVLREVVKHPSVESVVQCEIDEDVIEVSKKFLPGMAVGFSSSKLTLHVGDGFEFMKQNQDAFDVIITDSSDPMGPAESLFKESYYQLMKTALKEDGILCCQGECQWLHLDLIKEMRHFCKSLFPVVDYAYCSIPTYPSGQIGFMLCSKNPSTNFREPVQQLTQAQVEQMQLKYYNSDMHRAAFVLPEFTRKALNDIS | 2.696 | 1 | 3.056 | 0.569 | 2.561 | 0.412 | 3.135 | 0.466
Q99KP6 (protein, UniProt Q99KP6 1-504, looked up, full-length) MSLICSISNEVPEHPCVSPVSNHVYERRLIEKYIAENGTDPINNQPLSEEQLIDIKVAHPIRPKPPSATSIPAILKALQDEWDAVMLHSFTLRQQLQTTRQELSHALYQHDAACRVIARLTKEVTAAREALATLKPQAGLIVPQAVPSSQPSVVGAGEPMDLGELVGMTPEIIQKLQDKATVLTTERKKRGKTVPEELVKPEELSKYRQVASHVGLHSASIPGILALDLCPSDTNKILTGGADKNVVVFDKSTEQILATLKGHTKKVTSVVFHPSQELVFSASPDATIRIWSVPNTSCVQVVRAHESAVTGLSLHATGDYLLSSSDDQYWAFSDIQTGRVLTKVTDETSGCSLTCAQFHPDGLIFGTGTMDSQIKIWDLKERTNVANFPGHSGPITSIAFSENGYYLATAADDSSVKLWDLRKLKNFKTLQLDNNFEVKSLIFDQSGTYLALGGTDVQIYICKQWTEILHFTEHSGLTTGVAFGHHAKFIASTGMDRSLKFYSL | 4.136 | 1 | 3.436 | 0.411 | 3.364 | 0.514 | 4.537 | 0.591
P52955 (protein, UniProt P52955 1-282, looked up, full-length) MTSKEDGKAAPGEERRRSPLDHLPPPANSNKPLTPFSIEDILNKPSVRRSYSLCGAAHLLAAADKHAPGGLPLAGRALLSQTSPLCALEELASKTFKGLEVSVLQAAEGRDGMTIFGQRQTPKKRRKSRTAFTNHQIYELEKRFLYQKYLSPADRDQIAQQLGLTNAQVITWFQNRRAKLKRDLEEMKADVESAKKLGPSGQMDIVALAELEQNSEASGGGGGGGCGRAKSRPGSPALPPGAPQAPGGGPLQLSPASPLTDQRASSQDCSEDEEDEEIDVDD | 0.11 | 1 | 0.108 | 0.826 | 0.092 | 0.643 | 0.084 | 0.732
Q8VGI4 (protein, UniProt Q8VGI4 1-310, looked up, full-length) METQNHTTVTEFILLGLTESSTLRVILFMVFLGIYTVTLVGNFSIISLIRSCPQLHTPMYLFLSHLAFVDIGFSTSITPTMFKGFLGNRLVLSVAACIAQFCITVTFGTVECFLLAVMAYDRYVAICSPLLYSTHMSPRICFLLVGASYVGGCVNSGAFTSCLSILSFCGPNQIDHFFCDFPAVLKLSCSDVSIIGIIPSISAGSIIVITVFVIAVSYAYILITILKMRSTEGRQKAFSTCTSHLTAVTLYYGTITFIYVMPKSNYSTAQNKILSVFYTVVIPMLNPLIYSLRNRDVKEALRKAIIRIFP | 3.468 | 1 | 3.627 | 0.255 | 3.109 | 0.322 | 3.6 | 0.366
P53994 (protein, UniProt P53994 1-212, looked up, full-length) MAYAYLFKYIIIGDTGVGKSCLLLQFTDKRFQPVHDLTIGVEFGARMITIDGKQIKLQIWDTAGQESFRSITRSYYRGAAGALLVYDITRRDTFNHLTTWLEDARQHSNSNMVIMLIGNKSDLESRREVKKEEGEAFAREHGLIFMETSAKTASNVEEAFINTAKEIYEKIQEGVFDINNEANGIKIGPQHAATNASHGSNQGGQQAGGGCC | 0.562 | 1 | 0.541 | 0.459 | 0.584 | 1.278 | 0.527 | 0.775
Q61646 (protein, UniProt Q61646 1-347, looked up, full-length) MRALGAVVTLLLWGQLFAVELGNDAMDFEDDSCPKPPEIANGYVEHLVRYRCRQFYRLRAEGDGVYTLNDEKQWVNTVAGEKLPECEAVCGKPKHPVDQVQRIIGGSMDAKGSFPWQAKMISRHGLTTGATLISDQWLLTTAKNLFLNHSETASAKDITPTLTLYVGKNQLVEIEKVVLHPNHSVVDIGLIKLKQRVLVTERVMPICLPSKDYIAPGRVGYVSGWGRNANFRFTDRLKYVMLPVADQDKCVVHYENSTVPEKKNLTSPVGVQPILNEHTFCAGLTKYQEDTCYGDAGSAFAIHDMEEDTWYAAGILSFDKSCAVAEYGVYVRATDLKDWVQETMAKN | 0.356 | 1 | 0.181 | 1.119 | 0.214 | 1.098 | 0.467 | 0.849
Q8QZY1 (protein, UniProt Q8QZY1 1-564, looked up, full-length) MSYPADDYESEAAYDPYAYPGDYDMHTGDPKQDLAYERQYEQQTYQVIPEVIKNFIQYFHKTVSDLIDQKVYELQASRVSSDVIDQKVYEIQDIYENSWTKLTERFFKNTPWPEAEAIAPQVGNDAVFLILYKELYYRHIYAKVSGGPSLEQRFESYYNYCNLFNYILNADGPAPLELPNQWLWDIIDEFIYQFQSFSQYRCKTAKKSEGEMDFLRSNPKVWNVHSVLNVLHSLVDKSNINRQLEVYTSGGDPESVAGEYGRHSLYKMLGYFSLVGLLRLHSLLGDYYQAIKVLENIELNKKSMYSRVPECQVTTYYYVGFAYLMMRRYQDAIRVFANILLYIQRTKSMFQRTTYKYEMINKQNEQMHALLAIALTMYPMRIDESIHLQLREKYGDKMLRMQKGDPQVYEELFSYACPKFLSPVVPNYDNVHPNYHKEPFLQQLKVFSDEVQQQAQLSTIRSFLKLYTTMPVAKLAGFLDLTEQEFRIQLLVFKHKMKNLVWTSGISALDGEFQSASEVDFYIDKDMIHIADTKVARRYGDFFIRQIHKFEELNRTLKKMGQRP | 3.805 | 1 | 3.518 | 0.853 | 2.789 | 0.79 | 3.222 | 1.255
